This experiment concerns the target A5 domain (immobilized acceptor on the IAsys biosensor) (UniProt P08648). Briefly: optical biosensor (IAsys), A5 immobilized.

Chains of the proteins cited; added tags and fusions are not shown. Lines headed by an entry give the natural chain unless they say otherwise; changes in a name come on top.
UniProt P08648: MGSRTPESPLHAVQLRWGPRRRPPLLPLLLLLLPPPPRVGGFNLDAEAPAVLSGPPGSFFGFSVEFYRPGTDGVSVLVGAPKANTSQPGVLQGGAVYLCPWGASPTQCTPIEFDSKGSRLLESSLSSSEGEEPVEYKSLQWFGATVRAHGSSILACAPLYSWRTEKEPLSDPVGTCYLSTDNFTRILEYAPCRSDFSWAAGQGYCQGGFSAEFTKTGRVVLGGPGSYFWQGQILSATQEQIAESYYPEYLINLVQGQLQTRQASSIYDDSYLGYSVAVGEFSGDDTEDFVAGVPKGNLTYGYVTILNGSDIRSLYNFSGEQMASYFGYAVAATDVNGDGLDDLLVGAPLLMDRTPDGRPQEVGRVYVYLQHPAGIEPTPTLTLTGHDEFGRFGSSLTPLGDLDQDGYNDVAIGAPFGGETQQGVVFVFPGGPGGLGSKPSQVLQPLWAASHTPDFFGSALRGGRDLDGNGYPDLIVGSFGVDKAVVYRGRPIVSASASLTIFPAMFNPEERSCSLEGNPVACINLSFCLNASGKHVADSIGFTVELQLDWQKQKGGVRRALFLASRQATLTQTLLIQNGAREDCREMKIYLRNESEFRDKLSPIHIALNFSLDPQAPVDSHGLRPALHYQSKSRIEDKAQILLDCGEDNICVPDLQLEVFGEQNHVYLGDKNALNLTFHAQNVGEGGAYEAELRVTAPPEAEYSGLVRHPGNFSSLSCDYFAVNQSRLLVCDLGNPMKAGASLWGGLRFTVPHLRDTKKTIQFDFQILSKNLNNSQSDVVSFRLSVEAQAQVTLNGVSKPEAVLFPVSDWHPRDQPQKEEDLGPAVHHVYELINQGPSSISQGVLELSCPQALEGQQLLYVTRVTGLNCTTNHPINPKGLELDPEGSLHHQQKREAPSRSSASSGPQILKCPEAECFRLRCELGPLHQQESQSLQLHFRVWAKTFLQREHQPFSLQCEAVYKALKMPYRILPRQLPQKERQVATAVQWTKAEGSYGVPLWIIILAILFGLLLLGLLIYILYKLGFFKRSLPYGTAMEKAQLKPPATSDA

Results are given in words; binding and its absence hold for the method and conditions named. A result given as binding can be weak or reduced; the word gives no strength.

B1: perlecan Domain V (recombinant, C-terminal 6×His tag) (ligand)
chain: EIKITFRPDSADGMLLYNGQKRVPGSPTNLANRQPDFISFGLVGGRPEFRFDAGSGMATIRHPTPLALGHFHTVTLLRSLTQGSLIVGDLAPVNGTSQGKFQGLDLNEELYLGGYPDYGAIPKAGLSSGFIGCVRELRIQGEEIVFHDLNLTAHGISHCPTCRDRPCQNGGQCHDSESSSYVCVCPAGFTGSRCEHSQALHCHPEACGPDATCVNRPDGRGYTCRCHLGRSGLRCEEGVTVTTPSLSGAGSYLALPALTNTHHELRLDVEFKPLAPDGVLLFSGGKSGPVEDFVSLAMVGGHLEFRYELGSGLAVLRSAEPLALGRWHRVSAERLNKDGSLRVNGGRPVLRSSPGKSQGLNLHTLLYLGGVEPSVPLSPATNMSAHFRGCVGEVSVNGKRLDLTYSFLGSQGIGQCYDSSPCERQPCQHGATCMPAGEYEFQCLCRDGFKGDLCEHEENPCQLREPCLHGGTCQGTRCLCLPGFSGPRCQQGSGHGIAESDWHLEGSGGNDAPGQYGAYFHDDGFLAFPGHVFSRSLPEVPETIELEVRTSTASGLLLWQGVEVGEAGQGKDFISLGLQDGHLVFRYQLGSGEARLVSEDPINDGEWHRVTALREGRRGSIQVDGEELVSGRSPGPNVAVNAKGSVYIGGAPDVATLTGGRFSSGITGCVKNLVLHSARPGAPPPQPLDLQHRAQAGANTRPCPSHHHHHH
notes: domain: domain V; Secreted from transfected 293FT cells and purified on Ni beads; also called DV; endorepellin
For the molecule B1, the binding entry was “binds”.

The values above are taken from patent publication US20100168025A1 (TEXAS A AND M UNIVERSITY SYSTEM, published 2010).
